These are yes or no findings as the source states them, for the method shown. Binding seen in cells or lysates may run through a third protein. A yes stands for co-enrichment or nearness to the bait. Other partners may have been found.
Target: FLAG-UFL1 (UFM1-specific ligase 1), expressed in HEK293T cells (UniProt O94874)
Assay: affinity purification with mass spectrometry; HEK293T cells expressing FLAG-UFL1 (or vector) lysed under non-denaturing conditions, IP with anti-FLAG M2 beads, SDS-PAGE, mass spectrometry

By UniProt entry, the sequences of proteins in these tests, tags left out.
UniProt O94874: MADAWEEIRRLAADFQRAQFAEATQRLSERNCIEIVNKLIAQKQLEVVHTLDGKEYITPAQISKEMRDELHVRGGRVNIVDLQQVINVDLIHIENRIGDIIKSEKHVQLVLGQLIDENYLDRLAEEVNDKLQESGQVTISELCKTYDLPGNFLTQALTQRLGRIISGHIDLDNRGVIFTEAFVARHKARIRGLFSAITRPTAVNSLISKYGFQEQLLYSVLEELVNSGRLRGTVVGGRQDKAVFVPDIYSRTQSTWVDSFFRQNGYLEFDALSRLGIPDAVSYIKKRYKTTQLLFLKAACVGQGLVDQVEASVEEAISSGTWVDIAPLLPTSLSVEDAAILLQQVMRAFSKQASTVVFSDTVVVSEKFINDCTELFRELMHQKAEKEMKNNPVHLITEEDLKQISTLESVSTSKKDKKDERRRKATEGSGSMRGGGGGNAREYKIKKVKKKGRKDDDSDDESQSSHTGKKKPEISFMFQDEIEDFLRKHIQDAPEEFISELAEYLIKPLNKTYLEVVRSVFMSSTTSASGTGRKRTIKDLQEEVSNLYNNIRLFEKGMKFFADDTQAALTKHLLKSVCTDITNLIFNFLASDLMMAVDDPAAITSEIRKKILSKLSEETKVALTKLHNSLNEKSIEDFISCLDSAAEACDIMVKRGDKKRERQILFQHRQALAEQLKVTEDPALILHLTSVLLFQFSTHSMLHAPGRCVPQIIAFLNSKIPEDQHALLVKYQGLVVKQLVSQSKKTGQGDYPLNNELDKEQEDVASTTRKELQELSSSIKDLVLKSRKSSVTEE

Row | binding | Binder
1 | binds | MCM3 (endogenous, HEK293T) (protein, UniProt P25205 1-808) MAGTVVLDDVELREAQRDYLDFLDDEEDQGIYQSKVRELISDNQYRLIVNVNDLRRKNEKRANRLLNNAFEELVAFQRALKDFVASIDATYAKQYEEFYVGLEGSFGSKHVSPRTLTSCFLSCVVCVEGIVTKCSLVRPKVVRSVHYCPATKKTIERRYSDLTTLVAFPSSSVYPTKDEENNPLETEYGLSVYKDHQTITIQEMPEKAPAGQLPRSVDVILDDDLVDKAKPGDRVQVVGTYRCLPGKKGGYTSGTFRTVLIACNVKQMSKDAQPSFSAEDIAKIKKFSKTRSKDIFDQLAKSLAPSIHGHDYVKKAILCLLLGGVERDLENGSHIRGDINILLIGDPSVAKSQLLRYVLCTAPRAIPTTGRGSSGVGLTAAVTTDQETGERRLEAGAMVLADRGVVCIDEFDKMSDMDRTAIHEVMEQGRVTIAKAGIHARLNARCSVLAAANPVYGRYDQYKTPMENIGLQDSLLSRFDLLFIMLDQMDPEQDREISDHVLRMHRYRAPGEQDGDAMPLGSAVDILATDDPNFSQEDQQDTQIYEKHDNLLHGTKKKKEKMVSAAFMKKYIHVAKIIKPVLTQESATYIAEEYSRLRSQDSMSSDTARTSPVTARTLETLIRLATAHAKARMSKTVDLQDAEEAVELVQYAYFKKVLEKEKKRKKRSEDESETEDEEEKSQEDQEQKRKRRKTRQPDAKDGDSYDPYDFSDTEEEMPQVHTPKTADSQETKESQKVELSESRLKAFKVALLDVFREAHAQSIGMNRLTESINRDSEEPFSSVEIQAALSKMQDDNQVMVSEGIIFLI
2 | binds | MCM5 (endogenous, HEK293T) (protein, UniProt P33992 1-734) MSGFDDPGIFYSDSFGGDAQADEGQARKSQLQRRFKEFLRQYRVGTDRTGFTFKYRDELKRHYNLGEYWIEVEMEDLASFDEDLADYLYKQPAEHLQLLEEAAKEVADEVTRPRPSGEEVLQDIQVMLKSDASPSSIRSLKSDMMSHLVKIPGIIIAASAVRAKATRISIQCRSCRNTLTNIAMRPGLEGYALPRKCNTDQAGRPKCPLDPYFIMPDKCKCVDFQTLKLQELPDAVPHGEMPRHMQLYCDRYLCDKVVPGNRVTIMGIYSIKKFGLTTSRGRDRVGVGIRSSYIRVLGIQVDTDGSGRSFAGAVSPQEEEEFRRLAALPNVYEVISKSIAPSIFGGTDMKKAIACLLFGGSRKRLPDGLTRRGDINLLMLGDPGTAKSQLLKFVEKCSPIGVYTSGKGSSAAGLTASVMRDPSSRNFIMEGGAMVLADGGVVCIDEFDKMREDDRVAIHEAMEQQTISIAKAGITTTLNSRCSVLAAANSVFGRWDETKGEDNIDFMPTILSRFDMIFIVKDEHNEERDVMLAKHVITLHVSALTQTQAVEGEIDLAKLKKFIAYCRVKCGPRLSAEAAEKLKNRYIIMRSGARQHERDSDRRSSIPITVRQLEAIVRIAEALSKMKLQPFATEADVEEALRLFQVSTLDAALSGTLSGVEGFTSQEDQEMLSRIEKQLKRRFAIGSQVSEHSIIKDFTKQKYPEHAIHKVLQLMLRRGEIQHRMQRKVLYRLK

Source: paper PMC12583452
